# The list shows a part of the results.
# Chains of the proteins cited; added tags and fusions are not shown. Lines headed by an entry give the natural chain unless they say otherwise; changes in a name come on top.
# UniProt P49721: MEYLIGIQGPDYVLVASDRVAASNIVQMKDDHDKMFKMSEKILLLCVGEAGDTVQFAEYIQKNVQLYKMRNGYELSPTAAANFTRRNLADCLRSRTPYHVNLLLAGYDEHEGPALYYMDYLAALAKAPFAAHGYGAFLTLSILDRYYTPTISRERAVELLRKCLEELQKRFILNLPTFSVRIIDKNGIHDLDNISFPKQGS
# UniProt P79522: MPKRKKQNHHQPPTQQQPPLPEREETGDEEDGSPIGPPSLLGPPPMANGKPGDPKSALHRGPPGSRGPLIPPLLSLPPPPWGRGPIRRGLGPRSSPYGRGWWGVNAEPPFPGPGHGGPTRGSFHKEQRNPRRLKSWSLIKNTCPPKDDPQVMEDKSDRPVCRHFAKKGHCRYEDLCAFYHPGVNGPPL
# UniProt O60486: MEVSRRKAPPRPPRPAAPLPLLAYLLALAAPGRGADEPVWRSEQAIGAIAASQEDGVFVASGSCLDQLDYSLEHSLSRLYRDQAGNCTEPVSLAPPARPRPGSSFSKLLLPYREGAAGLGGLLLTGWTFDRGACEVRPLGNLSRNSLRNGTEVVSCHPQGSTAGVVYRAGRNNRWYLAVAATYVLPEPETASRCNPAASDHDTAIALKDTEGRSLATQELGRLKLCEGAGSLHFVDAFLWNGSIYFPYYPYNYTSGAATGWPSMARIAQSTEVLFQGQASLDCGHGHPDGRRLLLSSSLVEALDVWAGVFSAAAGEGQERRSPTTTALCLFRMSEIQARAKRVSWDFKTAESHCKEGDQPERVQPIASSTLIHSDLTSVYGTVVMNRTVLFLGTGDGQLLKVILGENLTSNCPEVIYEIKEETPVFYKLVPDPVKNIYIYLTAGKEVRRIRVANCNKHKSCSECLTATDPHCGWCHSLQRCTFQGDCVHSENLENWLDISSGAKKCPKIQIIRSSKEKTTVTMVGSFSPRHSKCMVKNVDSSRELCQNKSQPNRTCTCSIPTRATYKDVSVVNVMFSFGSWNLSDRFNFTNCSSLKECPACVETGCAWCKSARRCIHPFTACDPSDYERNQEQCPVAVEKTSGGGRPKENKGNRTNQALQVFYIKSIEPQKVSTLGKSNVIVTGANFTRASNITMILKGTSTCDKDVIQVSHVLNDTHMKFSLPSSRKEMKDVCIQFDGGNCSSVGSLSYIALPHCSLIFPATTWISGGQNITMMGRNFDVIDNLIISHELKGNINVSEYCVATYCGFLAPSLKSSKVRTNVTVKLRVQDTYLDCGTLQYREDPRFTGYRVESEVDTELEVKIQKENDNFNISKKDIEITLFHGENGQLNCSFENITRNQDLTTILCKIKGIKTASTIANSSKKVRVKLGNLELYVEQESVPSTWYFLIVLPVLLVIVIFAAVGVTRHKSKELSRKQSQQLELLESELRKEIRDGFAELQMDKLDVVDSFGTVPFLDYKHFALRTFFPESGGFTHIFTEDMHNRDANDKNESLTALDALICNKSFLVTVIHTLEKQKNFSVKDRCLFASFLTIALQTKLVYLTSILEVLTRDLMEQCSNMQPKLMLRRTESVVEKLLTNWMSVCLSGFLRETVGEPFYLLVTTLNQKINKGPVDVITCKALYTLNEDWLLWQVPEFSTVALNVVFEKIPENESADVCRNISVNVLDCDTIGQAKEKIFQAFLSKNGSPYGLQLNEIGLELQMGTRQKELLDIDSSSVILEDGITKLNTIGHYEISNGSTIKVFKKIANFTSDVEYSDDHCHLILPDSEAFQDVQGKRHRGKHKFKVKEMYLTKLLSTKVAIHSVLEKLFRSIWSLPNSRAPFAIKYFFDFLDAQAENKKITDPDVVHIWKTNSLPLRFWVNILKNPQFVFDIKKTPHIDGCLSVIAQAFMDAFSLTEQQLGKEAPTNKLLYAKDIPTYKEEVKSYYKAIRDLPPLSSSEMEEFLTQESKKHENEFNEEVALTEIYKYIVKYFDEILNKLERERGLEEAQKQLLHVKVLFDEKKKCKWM
# UniProt Q92530: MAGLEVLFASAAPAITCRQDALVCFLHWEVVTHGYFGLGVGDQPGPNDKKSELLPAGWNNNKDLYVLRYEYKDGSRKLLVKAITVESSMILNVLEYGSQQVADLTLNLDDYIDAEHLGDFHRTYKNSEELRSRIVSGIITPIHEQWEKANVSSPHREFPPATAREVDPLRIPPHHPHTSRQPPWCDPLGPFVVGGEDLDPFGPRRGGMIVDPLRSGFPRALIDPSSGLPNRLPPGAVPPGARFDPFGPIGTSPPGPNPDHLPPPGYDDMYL
# UniProt P43686, whole entry: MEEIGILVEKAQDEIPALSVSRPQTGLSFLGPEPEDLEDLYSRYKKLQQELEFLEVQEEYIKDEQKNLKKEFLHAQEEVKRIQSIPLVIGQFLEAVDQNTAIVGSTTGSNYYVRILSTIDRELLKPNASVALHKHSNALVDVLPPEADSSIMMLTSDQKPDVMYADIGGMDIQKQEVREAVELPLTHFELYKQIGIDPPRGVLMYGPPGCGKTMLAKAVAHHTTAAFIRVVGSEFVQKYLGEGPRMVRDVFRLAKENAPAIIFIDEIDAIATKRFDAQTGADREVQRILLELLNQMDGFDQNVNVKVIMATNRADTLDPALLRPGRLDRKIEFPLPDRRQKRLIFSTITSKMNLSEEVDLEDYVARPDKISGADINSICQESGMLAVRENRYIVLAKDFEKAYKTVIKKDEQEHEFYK
# UniProt P25787: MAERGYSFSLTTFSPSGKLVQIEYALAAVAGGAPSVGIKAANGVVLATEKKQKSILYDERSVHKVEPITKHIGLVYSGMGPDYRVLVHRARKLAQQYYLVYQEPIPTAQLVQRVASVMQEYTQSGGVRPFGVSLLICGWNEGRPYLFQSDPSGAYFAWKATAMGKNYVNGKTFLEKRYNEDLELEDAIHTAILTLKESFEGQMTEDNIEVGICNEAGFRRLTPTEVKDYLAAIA
# UniProt O00592: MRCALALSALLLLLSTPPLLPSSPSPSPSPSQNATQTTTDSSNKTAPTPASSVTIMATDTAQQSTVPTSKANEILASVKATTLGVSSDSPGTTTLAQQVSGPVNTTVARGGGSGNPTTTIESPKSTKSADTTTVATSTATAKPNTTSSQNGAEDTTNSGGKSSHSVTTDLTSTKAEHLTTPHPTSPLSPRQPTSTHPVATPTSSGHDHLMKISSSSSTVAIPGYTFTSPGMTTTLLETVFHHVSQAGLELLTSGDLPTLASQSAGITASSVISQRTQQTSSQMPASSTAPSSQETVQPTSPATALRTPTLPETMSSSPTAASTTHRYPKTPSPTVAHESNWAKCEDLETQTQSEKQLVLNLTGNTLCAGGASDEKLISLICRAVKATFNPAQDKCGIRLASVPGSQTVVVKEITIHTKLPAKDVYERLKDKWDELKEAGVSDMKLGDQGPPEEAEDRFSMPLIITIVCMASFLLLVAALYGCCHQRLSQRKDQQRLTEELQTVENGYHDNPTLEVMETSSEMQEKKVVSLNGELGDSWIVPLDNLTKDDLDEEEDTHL
# UniProt P23284: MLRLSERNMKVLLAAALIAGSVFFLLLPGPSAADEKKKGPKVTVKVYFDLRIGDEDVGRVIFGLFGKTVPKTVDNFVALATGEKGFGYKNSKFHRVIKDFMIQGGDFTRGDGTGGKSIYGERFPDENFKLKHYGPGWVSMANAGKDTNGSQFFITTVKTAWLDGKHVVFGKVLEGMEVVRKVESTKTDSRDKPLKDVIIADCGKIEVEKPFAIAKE
# UniProt P67775, whole entry: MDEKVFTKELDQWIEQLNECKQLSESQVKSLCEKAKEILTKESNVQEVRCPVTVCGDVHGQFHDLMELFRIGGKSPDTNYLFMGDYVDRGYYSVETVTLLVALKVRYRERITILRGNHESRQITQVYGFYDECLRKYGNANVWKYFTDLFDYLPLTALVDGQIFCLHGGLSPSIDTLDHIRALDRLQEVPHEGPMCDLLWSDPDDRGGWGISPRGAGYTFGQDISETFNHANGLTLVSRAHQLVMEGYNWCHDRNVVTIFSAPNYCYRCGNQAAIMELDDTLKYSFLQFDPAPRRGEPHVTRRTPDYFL
# UniProt P28074: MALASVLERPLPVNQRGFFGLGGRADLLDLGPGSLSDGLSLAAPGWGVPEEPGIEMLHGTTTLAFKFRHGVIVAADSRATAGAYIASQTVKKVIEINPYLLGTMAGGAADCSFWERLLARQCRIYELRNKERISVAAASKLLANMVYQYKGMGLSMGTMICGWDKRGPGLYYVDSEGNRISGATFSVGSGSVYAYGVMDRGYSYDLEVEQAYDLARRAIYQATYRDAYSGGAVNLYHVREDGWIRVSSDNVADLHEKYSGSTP
# UniProt Q8WXF1: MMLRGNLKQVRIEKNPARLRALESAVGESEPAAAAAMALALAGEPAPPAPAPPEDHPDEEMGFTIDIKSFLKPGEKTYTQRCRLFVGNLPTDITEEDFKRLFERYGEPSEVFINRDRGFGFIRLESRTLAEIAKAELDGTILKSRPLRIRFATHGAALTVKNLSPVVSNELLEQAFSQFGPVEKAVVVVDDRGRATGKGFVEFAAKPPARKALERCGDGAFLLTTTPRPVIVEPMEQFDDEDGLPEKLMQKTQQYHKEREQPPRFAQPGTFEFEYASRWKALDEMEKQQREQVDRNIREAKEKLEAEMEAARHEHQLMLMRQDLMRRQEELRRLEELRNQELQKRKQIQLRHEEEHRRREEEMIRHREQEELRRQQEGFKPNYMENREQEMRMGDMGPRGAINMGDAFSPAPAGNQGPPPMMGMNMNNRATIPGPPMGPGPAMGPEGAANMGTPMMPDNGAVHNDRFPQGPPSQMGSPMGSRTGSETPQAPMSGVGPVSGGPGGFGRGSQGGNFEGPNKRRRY
# UniProt Q96M27: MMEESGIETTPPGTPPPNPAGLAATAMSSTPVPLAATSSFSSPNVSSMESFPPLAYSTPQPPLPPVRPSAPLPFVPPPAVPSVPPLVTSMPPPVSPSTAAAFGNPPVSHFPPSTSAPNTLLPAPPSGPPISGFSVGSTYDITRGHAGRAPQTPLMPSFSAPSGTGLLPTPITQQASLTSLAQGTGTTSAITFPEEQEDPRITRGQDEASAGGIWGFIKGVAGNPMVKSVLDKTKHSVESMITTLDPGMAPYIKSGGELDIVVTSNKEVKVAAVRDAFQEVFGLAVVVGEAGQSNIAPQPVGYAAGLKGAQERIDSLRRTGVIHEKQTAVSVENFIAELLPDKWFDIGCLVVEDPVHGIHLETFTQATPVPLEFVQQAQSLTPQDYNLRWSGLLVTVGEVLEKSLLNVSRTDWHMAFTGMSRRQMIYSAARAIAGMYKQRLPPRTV
# UniProt Q9NRF9: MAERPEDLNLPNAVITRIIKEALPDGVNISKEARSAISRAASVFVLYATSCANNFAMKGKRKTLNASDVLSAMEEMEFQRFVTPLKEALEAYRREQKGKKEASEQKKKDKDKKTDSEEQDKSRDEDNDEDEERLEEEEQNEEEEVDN
# UniProt Q9P0J1: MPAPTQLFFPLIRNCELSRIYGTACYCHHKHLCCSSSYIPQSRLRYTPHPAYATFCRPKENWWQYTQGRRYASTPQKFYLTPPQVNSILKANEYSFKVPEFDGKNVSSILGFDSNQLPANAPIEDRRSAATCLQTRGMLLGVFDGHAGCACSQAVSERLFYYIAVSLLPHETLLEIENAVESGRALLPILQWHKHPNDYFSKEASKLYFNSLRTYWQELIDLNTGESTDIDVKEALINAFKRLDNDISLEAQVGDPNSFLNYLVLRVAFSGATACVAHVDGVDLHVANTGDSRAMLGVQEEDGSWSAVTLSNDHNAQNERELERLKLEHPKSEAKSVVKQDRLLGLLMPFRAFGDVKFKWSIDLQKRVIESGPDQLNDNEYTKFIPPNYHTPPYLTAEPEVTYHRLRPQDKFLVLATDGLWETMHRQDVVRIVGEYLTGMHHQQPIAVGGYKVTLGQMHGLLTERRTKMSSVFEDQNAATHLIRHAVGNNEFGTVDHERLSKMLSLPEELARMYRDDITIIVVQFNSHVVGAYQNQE
# UniProt P16435: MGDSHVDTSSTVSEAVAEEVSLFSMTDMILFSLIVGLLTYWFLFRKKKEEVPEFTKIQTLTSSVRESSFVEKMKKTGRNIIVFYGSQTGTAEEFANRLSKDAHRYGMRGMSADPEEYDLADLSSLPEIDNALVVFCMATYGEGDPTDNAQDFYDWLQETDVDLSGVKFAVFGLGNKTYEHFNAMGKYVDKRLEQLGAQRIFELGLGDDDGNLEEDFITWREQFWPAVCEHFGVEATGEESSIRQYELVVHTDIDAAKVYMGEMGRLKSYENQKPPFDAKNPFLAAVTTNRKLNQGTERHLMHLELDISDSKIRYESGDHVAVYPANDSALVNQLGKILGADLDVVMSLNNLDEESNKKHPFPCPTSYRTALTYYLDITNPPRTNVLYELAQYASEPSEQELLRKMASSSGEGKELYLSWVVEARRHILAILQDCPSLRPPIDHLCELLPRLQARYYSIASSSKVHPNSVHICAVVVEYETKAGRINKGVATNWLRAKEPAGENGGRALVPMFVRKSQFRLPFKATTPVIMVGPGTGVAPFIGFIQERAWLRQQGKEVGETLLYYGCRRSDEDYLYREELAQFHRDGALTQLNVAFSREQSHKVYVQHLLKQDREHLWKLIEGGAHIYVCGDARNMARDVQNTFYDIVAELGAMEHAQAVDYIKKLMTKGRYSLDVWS
# Compound: COc1ccc(Cn2ccc3cc(C)c(C(=O)NO)cc32)cc1
# Experiment: dose-dependent thermal stabilisation call (2D-TPP, DLPTP, 10% FDR) (binary (1 = stabilised)); higher = stabilised by the compound
# Details: system: HL-60 intact cells; concentration range 0.04-10 µM
# Protocol: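 2D thermal proteome profiling in intact HL-60 cells treated with BRD-3811 (0, 0.04, 0.29, 2, 10 uM) for 90 min at 37 C, then heated 3 min at one of 12 temperatures (42-63.9 C). Soluble protein was quantified by TMT10 MS. The value is the DLPTP call of the paper: dose-dependent thermal stabilisation over all temperatures at 10% FDR (F-test of a dose-response against a flat model); one experiment, one call per tested protein.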
row,Target,dose-dependent thermal stabilisation call
1,PLXNB2 (UniProt O15031),inactive: 0
2,POLR3E (UniProt Q9NVU0),inactive: 0
3,PSMB2 (UniProt P49721),inactive: 0
4,PRR3 (UniProt P79522),inactive: 0
5,POLR2G (UniProt P62487),inactive: 0
6,PTDSS1 (UniProt P48651),inactive: 0
7,PSMB8 (UniProt P28062),inactive: 0
8,PRKAR1A (UniProt P10644),inactive: 0
9,PRPF4 (UniProt O43172),inactive: 0
10,PLXNC1 (UniProt O60486),inactive: 0
11,PSMF1 (UniProt Q92530),inactive: 0
12,PSMC4 (UniProt P43686),inactive: 0
13,PPP4C (UniProt P60510),inactive: 0
14,PSMA2 (UniProt P25787),inactive: 0
15,PMS2 (UniProt P54278),inactive: 0
16,PRPF39 (UniProt Q86UA1),inactive: 0
17,PPA1 (UniProt Q15181),inactive: 0
18,PSMG2 (UniProt Q969U7),inactive: 0

row,Target,dose-dependent thermal stabilisation call
1,PPP2R1B (UniProt P30154),inactive: 0
2,PODXL (UniProt O00592),inactive: 0
3,PPIB (UniProt P23284),inactive: 0
4,PPP2CA (UniProt P67775),inactive: 0
5,PPM1G (UniProt O15355),inactive: 0
6,POLR1C (UniProt O15160),inactive: 0
7,PSMB5 (UniProt P28074),inactive: 0
8,PSPC1 (UniProt Q8WXF1),inactive: 0
9,PRRC1 (UniProt Q96M27),inactive: 0
10,POLE3 (UniProt Q9NRF9),inactive: 0
11,PPM2C (UniProt Q9P0J1),inactive: 0
12,PRDM10 (UniProt Q9NQV6),inactive: 0
13,PSMD10 (UniProt O75832),inactive: 0
14,PSEN1 (UniProt P49768),inactive: 0
15,PSAT1 (UniProt Q9Y617),inactive: 0
16,PRDX1 (UniProt Q06830),inactive: 0
17,POR (UniProt P16435),inactive: 0
18,PLXNB1 (UniProt O43157),inactive: 0

# From the supplement of paper PMC7666118
